Drawing on patent US20050201932A1, this text covers binding for one molecule.

Results are given in words; binding and its absence hold for the method and conditions named. A result given as binding can be weak or reduced; the word gives no strength.

Experiment [1] concerns the target human polymeric immunoglobulin receptor (pIgR), tested as overlapping 15-residue peptides (human). Nature of the experiment: peptide ELISA, overlapping 15-residue peptides, phage-displayed scFv.
Experiment [2] concerns the target rat polymeric immunoglobulin receptor (pIgR), tested as overlapping 15-residue peptides (rat). The experiment is described as above.

B1: scFv 4A (scFv)
scFv: QVQLVQSGGGLVQPGGSLRLSCAASGFTFSSYAMSWVRQAPGKGLEWVSAISGSGGSTYYADSVKGRFTISRDNSKNTLYLQMNSLRAEDTAVYYCARSFTVNSGYFQHWGQGTLVTVSSGGGGSGGGGSGGGGSEIVLTQSPSTLSASIGDRVTITCRASEGIYHWLAWYQQKPGKAPKLLIYKASSLASGVPSRFSGSGSGTDFTLTISSLQPEDFATYYCQHYDSTPPTFGQGTKVDIKRAAAEQKLISEEDLNGAAHHHHHH
Consider B1, for which the binding entry in experiment [1] and in experiment [2] was “binds” each time.
